Data from paper doi:10.1101/2024.02.13.580115.
Read-outs that look alike come from different tables or passages of the source. No constants are given. Whether binding was seen depends on the method and setting. Binding calls can cover weak binding; strength is not graded here.

Assays:
[1] = molecular target: Schizophyllum commune WC-2 fused to the GAL4 binding domain (Schizophyllum commune H4-8); test: two-hybrid
[2] = molecular target: Schizophyllum commune WC-2 fused to the GAL4 binding domain (Schizophyllum commune H4-8); test: two-hybrid; remark: listed apart in the source

Schizophyllum commune WC-1 fused to the GAL4 activating domain (from UniProt A0ACF2F142)
binding [1]: binds | binding [2]: binds
